Among the data in publication PMC7819943, “Rice protein-binding microarrays: a tool to detect cis-acting elements near promoter regions in rice” are binding signal values, retold here.

The list shows a part of the results.

The experiment deals with T1, OsSMF1 (Oryza sativa, UniProt Q6ZLB0 1-436).
T1 sequence: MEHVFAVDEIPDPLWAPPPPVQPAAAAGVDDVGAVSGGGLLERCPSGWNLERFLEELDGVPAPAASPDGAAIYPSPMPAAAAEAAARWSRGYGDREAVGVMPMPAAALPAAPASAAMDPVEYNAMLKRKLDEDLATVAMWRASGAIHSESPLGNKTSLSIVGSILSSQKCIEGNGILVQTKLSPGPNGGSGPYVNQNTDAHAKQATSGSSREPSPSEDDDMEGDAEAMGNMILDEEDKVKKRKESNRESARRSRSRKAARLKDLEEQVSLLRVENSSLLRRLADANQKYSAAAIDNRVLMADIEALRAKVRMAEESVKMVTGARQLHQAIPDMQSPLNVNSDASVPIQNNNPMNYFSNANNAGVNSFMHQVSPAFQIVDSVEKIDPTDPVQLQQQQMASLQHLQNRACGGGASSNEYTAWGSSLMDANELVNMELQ
Briefly: protein-binding microarray (RPBM); PBS, 2% BSA, 51.3 ng/ul salmon testes DNA, 50 uM zinc acetate, 200 nM TF, 25 C, 1 h; high values mean tight binding. To be noted: protein: recombinant; tags: N-terminal polyhistidine and DsRed monomer fusion (pET32a); chain copies: 2; label: CyDye5-dUTP incorporated in the synthesized complementary strand; 3' TTTTT single-stranded linker to array surface; dsDNA, one strand shown. A digest of the protocol:
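Binding signal is defined as the fluorescence intensity of each feature in arbitrary units, read on an Axon 4000B scanner. Transcription factors with N-terminal polyhistidine and DsRed fusions came from E. coli BL21-CodonPlus and were purified on Ni–NTA. They were incubated at 200 nM for 1 h at 25 °C on a custom Agilent array that had been made double-stranded with Cy5-dUTP, with 50 µM zinc acetate present, and the array was washed.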
As to “AATAATCACAAATCTAGCCACGACAGTGACTTTGCACTTCCGGAGTCACCTAGTGCAG”, the binding signal was 4150 fluorescence intensity (a.u.).
Turning to “GGCCCATGGAAGCCTATGCGGGCCCACGTGTTGGCCCGTGCGGAGTCACCTAGTGCAG”, the binding signal was 5270 fluorescence intensity (a.u.).
“ACCATGAAGGATCATGGTTATGAACATCAATACATCATCACGGAGTCACCTAGTGCAG”: the binding signal is 3460 fluorescence intensity (a.u.).
Next, “CGAGTGACTAGCAGCACACGACAGTGACGTGGCGTCGTAGCGGAGTCACCTAGTGCAG”: 24100 fluorescence intensity (a.u.).
With “AGGTCGCTCCAAACTAATCCACCTCACCTCGTCCTCGTCGCGGAGTCACCTAGTGCAG”, the binding signal was 4510 fluorescence intensity (a.u.).
For “TCGACTCTGGAGTACGTAGCGACACGATCCCCGTCCATCGCGGAGTCACCTAGTGCAG” the value was 3350 fluorescence intensity (a.u.); for “CCTGGACCAGGTCCACCAAGGCCCGCTCACACCGACAATTCGGAGTCACCTAGTGCAG”, 28700 fluorescence intensity (a.u.); for “TAAAATCTAGATGCAATGAGTTATTTCATATGATTTGAAACGGAGTCACCTAGTGCAG”, 17000 fluorescence intensity (a.u.).
As to “GGATTTGCAATATATTGGTGGCACTATGTGTGAGAGATTTCGGAGTCACCTAGTGCAG”, the binding signal was 3750 fluorescence intensity (a.u.).
Take “TCCCGCTCACCACCACGCCACGTCACCGATCCGCGCAACCCGGAGTCACCTAGTGCAG”: the binding signal was 22400 fluorescence intensity (a.u.).
For “GCAAGTACACTTAAAACCTGTTAGTCATGAATAAAACTCTCGGAGTCACCTAGTGCAG”, the binding signal was 4060 fluorescence intensity (a.u.).
For the sequence “GCGGGCAGTGGGCGCGAGATCTCATCCGAGTGGGTGGGCGCGGAGTCACCTAGTGCAG”, the binding signal is 3750 fluorescence intensity (a.u.).
“AAACTAATTATACAGATTACGTGTAAATTGCGAGACGAATCGGAGTCACCTAGTGCAG”: the binding signal is 4120 fluorescence intensity (a.u.).
“GCAATCCCGATAAGGTGACTCGGACTCACACATCAACCCCCGGAGTCACCTAGTGCAG”: the binding signal was 3570 fluorescence intensity (a.u.).
As to “GGGGAAGGTGGCCACGTCACGCTTTGCTCGCCTCGTCCGGCGGAGTCACCTAGTGCAG”, the binding signal is 23500 fluorescence intensity (a.u.).
For the sequence “CACACTGACACATGTCCGCGAAATTTCGACGTTTCGACATCGGAGTCACCTAGTGCAG”, the binding signal was 3690 fluorescence intensity (a.u.).
With “ACGGCGTCGTCATCAGCCAGGCCGACTACCAGGGCCTACACGGAGTCACCTAGTGCAG”, the binding signal was 4060 fluorescence intensity (a.u.).
Take “CCGCAAGCCTCCGTCGAGATTGACGTCACCCGTTCAAGCCCGGAGTCACCTAGTGCAG”: the binding signal was 9330 fluorescence intensity (a.u.).
As to “CGCTCCATCCAACTCATCACACACACGACACAGCACACCGCGGAGTCACCTAGTGCAG”, the binding signal is 6930 fluorescence intensity (a.u.).
Regarding “ACGCGAGACCAGGGCAGCTAGGAGAACGGGGACAGGAGGGCGGAGTCACCTAGTGCAG”, the binding signal is 3330 fluorescence intensity (a.u.).
In the case of “GGCCGTGAGTGCGGCACGTGGGCTGGCACGGCACGGCCCGCGGAGTCACCTAGTGCAG”, the binding signal is 3810 fluorescence intensity (a.u.).
With “AGTTTTGTACGCATGTGTGGCGCTGACGTCATGCCCGATCCGGAGTCACCTAGTGCAG”, the binding signal was 18000 fluorescence intensity (a.u.).
As to “CATGGGTAGCACATGACTAGTCCAGTTCTCCCTGTCAGCACGGAGTCACCTAGTGCAG”, the binding signal is 3870 fluorescence intensity (a.u.).
